These are yes or no findings as the source states them, for the method shown. A result given as binding can be weak or reduced; the word gives no strength. Tags and fused reporters may be left off the sequences shown.

The target of this assay is T1, full length PER2 (LTE cell-free expressed, eGFP or mCherry tagged) (human) (UniProt O15055).
T1 sequence: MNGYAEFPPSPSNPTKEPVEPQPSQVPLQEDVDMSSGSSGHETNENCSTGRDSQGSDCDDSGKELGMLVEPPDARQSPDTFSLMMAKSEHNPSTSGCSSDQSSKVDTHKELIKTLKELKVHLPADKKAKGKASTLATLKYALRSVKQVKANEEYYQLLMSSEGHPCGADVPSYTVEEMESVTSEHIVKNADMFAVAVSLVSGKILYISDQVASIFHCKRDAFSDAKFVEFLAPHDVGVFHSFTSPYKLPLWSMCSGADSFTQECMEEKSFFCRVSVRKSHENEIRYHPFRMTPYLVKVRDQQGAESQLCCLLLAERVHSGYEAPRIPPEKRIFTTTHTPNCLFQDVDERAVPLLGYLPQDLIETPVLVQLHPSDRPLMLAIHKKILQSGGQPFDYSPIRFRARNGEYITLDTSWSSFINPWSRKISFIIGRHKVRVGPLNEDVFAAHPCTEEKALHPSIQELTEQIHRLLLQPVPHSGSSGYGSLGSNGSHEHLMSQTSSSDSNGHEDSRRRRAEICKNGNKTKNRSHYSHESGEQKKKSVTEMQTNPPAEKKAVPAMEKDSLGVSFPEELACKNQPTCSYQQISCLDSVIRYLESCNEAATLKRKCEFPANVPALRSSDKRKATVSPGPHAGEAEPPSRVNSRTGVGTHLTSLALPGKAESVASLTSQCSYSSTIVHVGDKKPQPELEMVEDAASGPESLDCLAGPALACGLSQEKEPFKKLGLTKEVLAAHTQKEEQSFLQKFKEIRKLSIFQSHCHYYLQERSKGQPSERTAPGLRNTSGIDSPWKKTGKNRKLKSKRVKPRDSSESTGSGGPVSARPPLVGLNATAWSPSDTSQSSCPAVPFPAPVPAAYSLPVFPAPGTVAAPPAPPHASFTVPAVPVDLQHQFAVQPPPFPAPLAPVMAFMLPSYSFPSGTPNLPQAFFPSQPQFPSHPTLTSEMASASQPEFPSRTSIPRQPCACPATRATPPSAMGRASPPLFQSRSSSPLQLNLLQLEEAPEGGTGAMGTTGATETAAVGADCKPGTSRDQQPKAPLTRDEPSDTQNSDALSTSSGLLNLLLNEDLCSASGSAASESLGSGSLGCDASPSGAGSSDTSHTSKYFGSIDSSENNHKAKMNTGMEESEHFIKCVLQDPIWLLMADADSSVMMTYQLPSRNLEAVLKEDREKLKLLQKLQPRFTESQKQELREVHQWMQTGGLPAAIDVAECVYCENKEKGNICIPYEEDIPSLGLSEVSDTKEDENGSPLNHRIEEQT
The assay is described as follows: AlphaScreen or HTRF. (Alpha assays give light when donor and acceptor beads are brought close together.)

On to “CAVIN1 HR1 domain, LTE cell-free expressed (human) (domain or fragment)”, for which the binding entry is reported as “binds”.
The entry for “CAVIN3 HR1 domain, LTE cell-free expressed (human) (domain or fragment)” is “binds”.

The record behind these values is doi:10.1101/2022.10.10.511681.
